Results are given in words; binding and its absence hold for the method and conditions named. In cells and extracts the contact can be indirect. Some results given as binding are weak or reduced against the parent protein; the word gives no strength. Where a sequence is shown, tags or fusion partners need not be part of it.
Tests used:
Test in all cases: co-IP; native NP-40 lysates of S. pombe strains with tagged proteins; IP with anti-GFP, anti-V5 or anti-FLAG and Protein G Sepharose, or IgG Sepharose; immunoblot; wild-type background, for Ubp9 and Bun62 also bun107-null
Ubp4-GFP (S. pombe) = target: T1, Ubp4-GFP (S. pombe) (UniProt O60139)
T1 sequence: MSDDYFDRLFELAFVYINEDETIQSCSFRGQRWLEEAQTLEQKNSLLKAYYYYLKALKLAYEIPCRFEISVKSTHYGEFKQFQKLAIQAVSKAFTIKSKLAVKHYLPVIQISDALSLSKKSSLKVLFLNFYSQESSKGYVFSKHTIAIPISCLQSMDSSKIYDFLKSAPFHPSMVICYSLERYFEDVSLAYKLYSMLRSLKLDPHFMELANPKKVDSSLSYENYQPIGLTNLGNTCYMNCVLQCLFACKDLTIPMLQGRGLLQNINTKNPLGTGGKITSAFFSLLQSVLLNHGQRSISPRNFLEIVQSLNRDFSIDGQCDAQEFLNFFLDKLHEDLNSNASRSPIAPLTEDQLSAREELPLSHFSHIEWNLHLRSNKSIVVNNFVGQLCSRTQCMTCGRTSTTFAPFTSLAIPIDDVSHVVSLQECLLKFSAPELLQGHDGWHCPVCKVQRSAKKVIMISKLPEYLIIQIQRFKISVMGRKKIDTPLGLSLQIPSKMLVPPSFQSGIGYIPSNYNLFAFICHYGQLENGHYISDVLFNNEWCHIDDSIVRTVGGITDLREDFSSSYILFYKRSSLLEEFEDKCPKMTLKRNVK

TAP-Ubp11 (S. pombe) = target: T2, TAP-Ubp11 (S. pombe) (UniProt Q9UUD6)
T2 sequence: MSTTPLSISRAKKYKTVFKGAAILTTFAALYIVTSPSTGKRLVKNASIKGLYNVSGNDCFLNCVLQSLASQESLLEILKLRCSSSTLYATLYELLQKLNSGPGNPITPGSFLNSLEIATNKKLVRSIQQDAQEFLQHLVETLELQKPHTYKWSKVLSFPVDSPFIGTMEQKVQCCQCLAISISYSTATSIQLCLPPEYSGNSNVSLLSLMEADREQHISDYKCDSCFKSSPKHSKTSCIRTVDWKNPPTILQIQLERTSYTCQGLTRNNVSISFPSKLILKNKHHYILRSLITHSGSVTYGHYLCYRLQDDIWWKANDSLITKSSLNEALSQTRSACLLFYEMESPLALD

Ubp9-GFP (S. pombe) = target: T3, Ubp9-GFP (S. pombe) (UniProt Q9P7V9)
T3 sequence: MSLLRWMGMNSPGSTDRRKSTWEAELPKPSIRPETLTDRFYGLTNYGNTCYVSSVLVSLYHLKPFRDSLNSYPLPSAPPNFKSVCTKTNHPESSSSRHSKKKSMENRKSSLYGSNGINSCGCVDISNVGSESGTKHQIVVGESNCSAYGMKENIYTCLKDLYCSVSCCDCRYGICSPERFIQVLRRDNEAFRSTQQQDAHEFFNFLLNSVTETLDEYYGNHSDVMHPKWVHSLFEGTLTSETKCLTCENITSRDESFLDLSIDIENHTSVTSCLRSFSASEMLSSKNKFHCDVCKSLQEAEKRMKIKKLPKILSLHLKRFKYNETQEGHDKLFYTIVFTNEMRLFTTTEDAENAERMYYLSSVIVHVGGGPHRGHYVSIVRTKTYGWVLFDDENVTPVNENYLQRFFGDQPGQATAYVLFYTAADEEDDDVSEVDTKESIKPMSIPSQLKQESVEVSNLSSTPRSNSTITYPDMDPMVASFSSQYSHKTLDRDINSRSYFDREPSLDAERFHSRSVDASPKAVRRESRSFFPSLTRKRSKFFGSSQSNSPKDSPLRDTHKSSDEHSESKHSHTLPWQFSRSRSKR

[1] = target: T4, Bun62, tagged form used in the co-IPs of Figure S13D (S. pombe) (UniProt Q10437)
T4 sequence: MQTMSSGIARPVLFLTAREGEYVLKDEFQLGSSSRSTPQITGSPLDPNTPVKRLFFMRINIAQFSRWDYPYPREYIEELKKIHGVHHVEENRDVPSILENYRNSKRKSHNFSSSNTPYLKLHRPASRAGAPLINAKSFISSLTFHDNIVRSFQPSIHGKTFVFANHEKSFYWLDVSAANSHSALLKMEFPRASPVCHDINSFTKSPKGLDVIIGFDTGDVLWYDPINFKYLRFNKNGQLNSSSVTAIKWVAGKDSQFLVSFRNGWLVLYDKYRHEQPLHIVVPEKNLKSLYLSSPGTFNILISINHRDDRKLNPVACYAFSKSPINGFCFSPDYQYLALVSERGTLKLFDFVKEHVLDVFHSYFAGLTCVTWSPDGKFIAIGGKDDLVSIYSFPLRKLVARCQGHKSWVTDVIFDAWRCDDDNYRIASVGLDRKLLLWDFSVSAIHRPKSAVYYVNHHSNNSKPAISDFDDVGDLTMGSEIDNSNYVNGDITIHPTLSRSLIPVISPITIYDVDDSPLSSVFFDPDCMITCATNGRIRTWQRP

B1: Sfp47-FLAG (protein, UniProt O14259 1-415)
chain: MNSFSSNEYSTEISTEALNNWQQLVEQRISLELEYAAKLAKLTKSIKAIKQCAPLNDLTKQVCVELMQCNKKHLEASRYFQTHVKEFMKEYVDRENKFSNETISKSSAAALMTSMENFILFTNPVYHNKLQVPSKSDMEIANSLKITQPAEKNSGTANPISAYSLEHAELDERNNQLSEALSMLRLSPFVNNYYPSYQNRKDGKSLMENRGVVLSVDTVTSPISQSPKKLTPTTSPINSTSLSFVDAKKPGSKWPSQYDFPKKTKSTEIPFKTLPSLNINNERELTKHKLPIVKPKLAVFPSNQATASTLQLAPPPVQAIPTLRNPVNLDDKKESLLKYYATHPTITPDGFPIFAYVRALYAYKATLPSEIDLNVDDTLVVLNRQKDGWWKGLVVSPTVGRIGLFPSNYIEELEY
- binding (Ubp4-GFP (S. pombe)): binds

B2: Tom70-GFP (protein, UniProt O14217 1-625)
chain: MSGISNAENGKAIVSSGVLNSVSAFVRRHRTFVYTIGAVAVFATVGGVYHVQQKKASHKRSKKLKAHQDKAESKVNEGKNEAAKVVKEEDLKSSETGKDVETAAAAAAAAKKKKKNKKKVKAKKVGDSSVDKIATEESVKSMTKEERAKLAAELKTLGNKAYGQKEYANAIDYYTQAITCSHDPIFFSNRAACYAAIGDFEQVIKDTSEALSLDSSYVKALNRRSAAYEQLGKLDEALMDSTVSCIFDGFANESMTATVERLLKKVAEKKSSALLKERPPKLPAASFIQTYLDSFHAQPKPLFDNKFDGDAALAEAYEYLEKGEYQLSYDKAKESCLGSFSSPSVNARTHNLVGTFKFVSGDSKGSMENFNAAIKLDRKFIQPYIRLSAAYLDENDNEKMWKVLNDAESVDKTDSDLYYHRAQVRFVSGEFAEAISDYQKSIALDDSFIYSHIQLGVAQYKTHAIAESMKTFEDCKKRFPNSSEVYNYFGEILLDQQKFDDAVKNFDHAIELEKREHLTIMSAMPLINKALAVFQWKKDISQAENLCRQALSADPECDIAIASMAQFLLQQGKAREALEYFEKSAQLARTESEMVNAFSYAEATRTQIALTEKYPQLVGRLSNPM
- binding (TAP-Ubp11 (S. pombe)): binds

B3: Bun62, tagged form used in the co-IPs of Figure S13D (protein, UniProt Q10437 1-543)
chain: MQTMSSGIARPVLFLTAREGEYVLKDEFQLGSSSRSTPQITGSPLDPNTPVKRLFFMRINIAQFSRWDYPYPREYIEELKKIHGVHHVEENRDVPSILENYRNSKRKSHNFSSSNTPYLKLHRPASRAGAPLINAKSFISSLTFHDNIVRSFQPSIHGKTFVFANHEKSFYWLDVSAANSHSALLKMEFPRASPVCHDINSFTKSPKGLDVIIGFDTGDVLWYDPINFKYLRFNKNGQLNSSSVTAIKWVAGKDSQFLVSFRNGWLVLYDKYRHEQPLHIVVPEKNLKSLYLSSPGTFNILISINHRDDRKLNPVACYAFSKSPINGFCFSPDYQYLALVSERGTLKLFDFVKEHVLDVFHSYFAGLTCVTWSPDGKFIAIGGKDDLVSIYSFPLRKLVARCQGHKSWVTDVIFDAWRCDDDNYRIASVGLDRKLLLWDFSVSAIHRPKSAVYYVNHHSNNSKPAISDFDDVGDLTMGSEIDNSNYVNGDITIHPTLSRSLIPVISPITIYDVDDSPLSSVFFDPDCMITCATNGRIRTWQRP
- binding (Ubp9-GFP (S. pombe)): binds

B4: Ubp9-GFP (enzyme, UniProt Q9P7V9 1-585)
chain: MSLLRWMGMNSPGSTDRRKSTWEAELPKPSIRPETLTDRFYGLTNYGNTCYVSSVLVSLYHLKPFRDSLNSYPLPSAPPNFKSVCTKTNHPESSSSRHSKKKSMENRKSSLYGSNGINSCGCVDISNVGSESGTKHQIVVGESNCSAYGMKENIYTCLKDLYCSVSCCDCRYGICSPERFIQVLRRDNEAFRSTQQQDAHEFFNFLLNSVTETLDEYYGNHSDVMHPKWVHSLFEGTLTSETKCLTCENITSRDESFLDLSIDIENHTSVTSCLRSFSASEMLSSKNKFHCDVCKSLQEAEKRMKIKKLPKILSLHLKRFKYNETQEGHDKLFYTIVFTNEMRLFTTTEDAENAERMYYLSSVIVHVGGGPHRGHYVSIVRTKTYGWVLFDDENVTPVNENYLQRFFGDQPGQATAYVLFYTAADEEDDDVSEVDTKESIKPMSIPSQLKQESVEVSNLSSTPRSNSTITYPDMDPMVASFSSQYSHKTLDRDINSRSYFDREPSLDAERFHSRSVDASPKAVRRESRSFFPSLTRKRSKFFGSSQSNSPKDSPLRDTHKSSDEHSESKHSHTLPWQFSRSRSKR
- binding [1]: binds
